Measured values as given in US11607466B2, “Tumor and immune cell imaging based on PD-L1 expression” (The Johns Hopkins University, priority 2016, dated 2023).
At least one structure is not confirmed: it was looked up by name or label, or the drawing left a doubt.

Protein sequences, listed by entry. Tags and fused reporters are not part of them. Residues count along the entry.
UniProt Q9NZQ7, 19-239 limits assumed: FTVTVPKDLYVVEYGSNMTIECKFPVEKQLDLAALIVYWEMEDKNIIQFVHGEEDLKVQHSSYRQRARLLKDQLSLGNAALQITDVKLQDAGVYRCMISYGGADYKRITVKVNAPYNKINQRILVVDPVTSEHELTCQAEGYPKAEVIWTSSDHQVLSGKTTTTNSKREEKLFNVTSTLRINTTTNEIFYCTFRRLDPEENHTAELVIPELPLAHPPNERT

Target: T1, PD-L1 binding to PD-1 (Homo sapiens, UniProt Q9NZQ7)
T1 construct: purchased R&D systems (Minneapolis, Minn.) 9049-B7 (PD-L1-His); 1086-PD-050 (PD-1 Fc chimera)
Experiment: PD-L1 and PD-1 binding inhibition assay (FRET competitive inhibition)

## CCCC[C@H]1C(=O)N(C)[C@@H](CCCC)C(=O)N[C@@H](CCCNC(=O)CCC(C(=O)O)N2CCN(CC(=O)O)CCN(CC(=O)O)CCN(CC(=O)O)CC2)C(=O)N[C@H](C(=O)NCC(N)=O)CSCC(=O)N[C@@H](Cc2ccc(O)cc2)C(=O)N(C)[C@@H](C)C(=O)N[C@@H](CC(N)=O)C(=O)N2CCC[C@H]2C(=O)N[C@@H](Cc2c[nH]cn2)C(=O)N[C@@H](CC(C)C)C(=O)N2C[C@H](O)C[C@H]2C(=O)N[C@@H](Cc2c[nH]c3ccccc23)C(=O)N[C@@H](CO)C(=O)N[C@@H](Cc2cn(C)c3ccccc23)C(=O)N1C (single isomer, unassigned) [WL-Cu^2+]
Cheng-Prusoff, KD=70 nM, PD-L1 80 nM
  Ki: 1.38 nM
Inhibition of PD-L1 interaction with PD-1, FRET
  IC50: 2.97 nM
